Measured values as given in patent US20110301098A1, “TREATMENT FOR INTIMAL HYPERPLASIA AND RELATED CONDITIONS” (priority 2006, published 2011).
Not every detail of the peptide structures is certain; ends, links or a residue may be inferred. Positions of bridges follow the written chain, without caps; N, C: chain ends. Non-standard residues stand in square brackets, D forms with d. Residues, ends and D or L forms follow the SMILES beside them. *: point of attachment. Hydrocinnamoyl = O=C(CCc1ccccc1)*; dCha = N[C@H](CC1CCCCC1)C(=O)O; Orn = NCCC[C@H](N)C(=O)O

Biological target: T1, C5a receptor (Mus musculus, UniProt P30993)
T1 sequence (P30993 1-351): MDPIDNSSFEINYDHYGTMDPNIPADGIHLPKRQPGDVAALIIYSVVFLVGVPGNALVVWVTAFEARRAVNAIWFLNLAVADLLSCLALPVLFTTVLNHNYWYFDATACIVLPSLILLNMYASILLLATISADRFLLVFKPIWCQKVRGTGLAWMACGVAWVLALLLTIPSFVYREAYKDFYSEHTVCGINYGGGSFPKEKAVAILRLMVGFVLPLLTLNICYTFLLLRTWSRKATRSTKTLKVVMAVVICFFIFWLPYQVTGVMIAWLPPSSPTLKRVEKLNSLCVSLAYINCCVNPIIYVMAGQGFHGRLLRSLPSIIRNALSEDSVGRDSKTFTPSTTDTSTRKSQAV
Test: C5a receptor antagonist treatment in the ApoE-/- mouse vein graft model
Details: for intimal hyperplasia surface (vein graft thickening): 28 days after surgery, control 0.39±0.06; for luminal area / foam cells in intimal hyperplasia: 28 days; for luminal area: control 0.42±0.04; for foam cells in intimal hyperplasia: control 30±4%

N=C(N)NCCC[C@@H]1NC(=O)[C@H](Cc2c[nH]c3ccccc23)NC(=O)[C@@H](CC2CCCCC2)NC(=O)[C@@H]2CCCN2C(=O)[C@@H](NC(=O)CCc2ccccc2)CCCNC1=O [HC, hydrocinnamate-[OP-(D-Cha)WR]] (Hydrocinnamoyl-[Orn]P[dCha]WR; lactam 1-C)
intimal hyperplasia surface (vein graft thickening) (0.3 mg/kg/day s.c.): 0.23±0.03 mm^2
luminal area (0.3 mg/kg/day s.c.): 0.61±0.04 mm^2
foam cells in intimal hyperplasia (0.3 mg/kg/day s.c.): 16±3%
intimal hyperplasia surface (vein graft thickening) (3 mg/kg/day s.c.): 0.33±0.03 mm^2
luminal area (3 mg/kg/day s.c.): 0.48±0.03 mm^2
foam cells in intimal hyperplasia (3 mg/kg/day s.c.): 22±3%
